Source: PubChem BioAssay AID2014 (Sanford-Burnham Center for Chemical Genomics, 2009)
The list shows a part of the results.

Sequences of proteins named here, by UniProt entry; tags and fusion partners are left off.
UniProt P11940, whole entry: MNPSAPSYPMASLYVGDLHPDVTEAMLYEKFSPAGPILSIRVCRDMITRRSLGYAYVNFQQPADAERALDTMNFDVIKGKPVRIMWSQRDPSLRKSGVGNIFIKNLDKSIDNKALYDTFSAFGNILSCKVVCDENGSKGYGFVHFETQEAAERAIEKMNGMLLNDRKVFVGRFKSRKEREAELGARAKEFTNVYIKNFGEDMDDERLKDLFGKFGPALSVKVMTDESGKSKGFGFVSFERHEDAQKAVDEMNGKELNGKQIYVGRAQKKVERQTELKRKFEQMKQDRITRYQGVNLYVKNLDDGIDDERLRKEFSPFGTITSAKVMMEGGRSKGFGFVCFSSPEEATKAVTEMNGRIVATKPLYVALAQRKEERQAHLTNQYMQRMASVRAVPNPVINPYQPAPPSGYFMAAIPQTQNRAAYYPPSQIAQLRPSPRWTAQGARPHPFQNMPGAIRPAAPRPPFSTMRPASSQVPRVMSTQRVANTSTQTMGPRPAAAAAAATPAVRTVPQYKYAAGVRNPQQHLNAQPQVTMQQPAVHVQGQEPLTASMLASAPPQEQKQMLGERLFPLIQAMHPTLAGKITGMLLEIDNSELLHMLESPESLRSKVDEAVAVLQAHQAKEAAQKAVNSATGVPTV

target: Polyadenylate-binding protein 1 (Homo sapiens) (UniProt P11940); experiment: blockers of PABP interaction with poly(A) – biochemical, fluorescence polarization, uHTS, primary screen (AID 2014); conditions: PABP-poly(A) RNA binding, confirmation repeats, at 20 µM, stronger effect = higher value

| SMILES | inhibition |
| --- | --- |
| CCCN1CCC(Nc2cc(OC)cc(OC)c2)CC1 | 30.1% |
